# Laboratory results reported in paper PMC6925144, “A prospective compound screening contest identified broader inhibitors for Sirtuin 1” (Scientific Reports, 2019).
# Chains of the proteins cited; added tags and fusions are not shown. Residues count along the entry.
# UniProt Q96EB6, 2-747 limits assumed: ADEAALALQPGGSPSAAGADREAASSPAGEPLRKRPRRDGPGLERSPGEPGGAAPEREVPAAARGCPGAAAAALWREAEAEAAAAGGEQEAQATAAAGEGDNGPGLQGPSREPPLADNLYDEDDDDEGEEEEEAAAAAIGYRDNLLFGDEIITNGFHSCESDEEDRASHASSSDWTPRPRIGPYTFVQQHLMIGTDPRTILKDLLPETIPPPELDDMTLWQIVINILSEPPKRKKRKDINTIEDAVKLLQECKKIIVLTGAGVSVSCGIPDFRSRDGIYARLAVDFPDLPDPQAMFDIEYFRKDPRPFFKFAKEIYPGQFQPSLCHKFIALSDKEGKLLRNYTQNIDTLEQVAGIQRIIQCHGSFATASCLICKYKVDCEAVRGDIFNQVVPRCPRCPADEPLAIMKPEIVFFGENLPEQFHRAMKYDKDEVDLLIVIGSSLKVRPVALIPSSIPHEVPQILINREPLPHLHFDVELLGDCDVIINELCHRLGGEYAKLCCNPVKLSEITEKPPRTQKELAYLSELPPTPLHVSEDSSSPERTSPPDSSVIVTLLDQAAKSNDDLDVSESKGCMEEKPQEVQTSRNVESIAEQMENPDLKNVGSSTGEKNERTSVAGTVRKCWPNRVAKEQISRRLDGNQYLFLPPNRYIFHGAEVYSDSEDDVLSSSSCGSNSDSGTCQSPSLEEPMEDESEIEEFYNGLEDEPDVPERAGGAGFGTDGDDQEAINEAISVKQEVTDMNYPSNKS
# In all, about 3,200 compounds were measured (“TSA(with NAD+) / Primary screening (TSA) / delta Tm (K)”: median about -0.04, highest 2% from about 0.37 on). The list shows a part of the results.
# Molecular target: NAD-dependent deacetylase Sirtuin 1 (human, UniProt Q96EB6)
# Experiment: primary screen, delta tm
# Design: single well (n = 1, as 'the same TSA')
# Conditions: 10 µM
row,SMILES,TSA(with NAD+) / Primary screening (TSA) / delta Tm (K)
1,O=C(CSc1nnc(-c2cccnc2)o1)N(Cc1ccccc1)c1nc2c(s1)CCCC2,-0.08 K
2,COc1cccc(CC(=O)N2CCC(O)(C(F)(F)F)C2)c1 (stereo not drawn),-0.11 K
3,O=C(CCc1nc2ccccc2s1)Nc1cccc(S(=O)(=O)NCc2ccco2)c1,-0.06 K
4,COc1cc(CN(C)C(=O)c2ccc3c(c2)C(=O)N(C)C3=O)ccc1OCc1ccccc1,-0.11 K
5,COc1ccccc1C(=O)NC(CCSC)C(=O)Nc1ccc(C23CC4CC(CC(C4)C2)C3)cc1 (stereo not drawn),-0.11 K
6,O=C(C1=C(O)C(=O)N(CCCN2CCOCC2)C1c1ccco1)c1ccc(F)cc1 (stereo not drawn),-0.05 K
7,COc1ccc(OC)c(C2C(C(=O)/C=C/c3ccco3)=C(O)C(=O)N2CCCN2CCOCC2)c1 (stereo not drawn),-0.19 K
8,COc1ccc(S(=O)(=O)Nc2ccc(C(=O)NCC(=O)NCc3nnc4ccccn34)cc2)cc1,-0.03 K
9,Cc1ccc(C(=O)C2=C(O)C(=O)N(CCCN3CCOCC3)C2c2ccccn2)o1 (stereo not drawn),-0.14 K
10,Cc1cc(C#N)ccc1S(=O)(=O)N1CCC(N)C1 (stereo not drawn),0.05 K
11,O=C1/C(=C\c2ccc(Br)cc2F)COc2ccccc21,-0.18 K
12,O=c1cc(N2CCC(C(O)c3ccccc3)CC2)nc2ccccn12 (stereo not drawn),-0.01 K
13,Oc1ccc(/C=N/c2cccc3cnccc23)c(O)c1O,-0.14 K
14,O=C(CN1C(=O)NC2(CCc3ccccc32)C1=O)NC(c1ccccc1)c1ccc(Cl)cc1 (stereo not drawn),0.01 K
15,CN(CCCNC(=O)c1ccc2ccccc2c1)Cc1ccccc1,-0.02 K
16,O=[N+]([O-])c1cnn(-c2ncnc3c2cnn3-c2ccccc2)c1,-0.06 K
17,O=C(COC(=O)CON=C1c2ccccc2-c2ccccc21)Nc1ccc2c(c1)OCO2,0.36 K
18,CC1CC(=O)Nc2ccccc2N1C(=O)c1ccc2ccccc2c1 (stereo not drawn),0.06 K
19,Cn1ncc2c(N3CCN(Cc4ccc5c(c4)CCO5)CC3)ncnc21,-0.13 K
20,CCC(C)(N)CN (stereo not drawn),-0.03 K
21,CC1CC(C(=O)Nc2ncc(C(N)=O)s2)CCO1 (stereo not drawn),-0.02 K

row,SMILES,TSA(with NAD+) / Primary screening (TSA) / delta Tm (K)
1,CCOc1ccc(/C=C(/C#N)C(=O)c2c[nH]c3cc(F)ccc23)cc1,-0.03 K
2,COCCNc1nnc(SCc2cnc(-c3ccccc3)s2)s1,-0.04 K
3,NCC(N)C1CCC1 (stereo not drawn),-0.14 K
4,CC(C)C(OC(=O)Cc1coc2cc(O)ccc12)C(=O)NC(N)=O (stereo not drawn),-0.05 K
5,NCCCC(N)C(=O)O (stereo not drawn),-0.08 K
6,O=C(Nc1ccc(OC(F)F)c(Cc2ccccc2)c1)C1=COCCO1,-0.08 K
7,COC(=O)c1ncccc1N1CCC(C(O)c2ccccc2)CC1 (stereo not drawn),-0.21 K
8,O=C(O)Cc1cc(F)cc2c1OCOC2,-0.23 K
9,O=C1NC(=S)N/C1=C\c1cc(Br)ccc1O,-0.03 K
10,NC(=O)c1cc2sc3ccccc3c2s1,0.01 K
11,Cn1c(SCc2cccc(C#N)c2)nc2ccsc2c1=O,-0.23 K
12,Nc1cccc(N2C(=O)c3ccccc3C2=O)c1,-0.09 K
13,COC(=O)NCC(=O)NCc1ccc(Cn2cnc3ccccc32)cc1,0.07 K
14,O=C(NC12CC3CC(CC(C3)C1)C2)c1ccccc1C(=O)OCC(=O)N1CCc2ccccc21,-0.13 K
15,O=C(O)CSCC(=O)O,-0.16 K
16,NC(=O)C1CCN(Cc2nc3c(Br)cc(Br)cc3c(=O)[nH]2)CC1,0.08 K
17,O=C(CNCc1ccco1)Nc1ccccc1C(F)(F)F,-0.16 K
18,O=C1NC(=S)NC(=O)C1=Cc1cccnc1,-0.14 K
19,Cc1ccc(N(C)S(=O)(=O)c2cccc(C(=O)Nc3cc(F)ccc3C)c2)cc1,-0.01 K
20,O=C(O)CCc1c(-c2ccc(F)cc2)[nH]c2ccccc12,-0.08 K
21,COc1ccc2c(c1)CCCC2CNC(=O)c1cc(C(N)=O)cs1 (stereo not drawn),-0.12 K

row,SMILES,TSA(with NAD+) / Primary screening (TSA) / delta Tm (K)
1,O=C(CN1CCN(Cc2ccc(Br)s2)CC1)Nc1cc(Cl)ccc1-n1cncn1,-0.05 K
2,COCCOCCN,0.01 K
3,CN(Cc1ccc(C(=O)NCC(F)(F)F)cc1)Cc1nc2c(cnn2-c2ccccc2)c(=O)[nH]1,-0.08 K
4,CC1CCc2c(sc3ncnc(N4CCN(S(=O)(=O)c5ccc6c(c5)OCCO6)CC4)c23)C1 (stereo not drawn),0.18 K
5,N#CCNC(=O)c1ccc2[nH]c3c(c2c1)CCCC3,0.06 K
6,CCc1nn2c(=O)cc(COC(=O)C(O)(c3ccccc3)c3ccccc3)nc2s1,-0.05 K
7,COc1cccc(C(=O)OC(C)C(=O)Nc2ccc(C(N)=O)cc2)c1OC (stereo not drawn),0.15 K
8,CCCOc1ccc2cc(C(=O)c3ccc(N(C)S(C)(=O)=O)cc3)oc2c1,-0.11 K
9,COc1ccc(N)c(OC)c1,-0.18 K
10,Cc1ccc(-n2nnnc2SCc2nc3c(cnn3-c3ccccc3)c(=O)[nH]2)cc1,-0.11 K
11,Cc1ccc(OCCNC(=O)Cc2coc3cc4c(cc23)CCC4)cc1,-0.12 K
12,Cc1ccc(OCC(O)Cn2c(C(F)(F)F)ccc(C(N)=O)c2=O)cc1 (stereo not drawn),0.01 K
13,OCn1cnc2ccccc21,-0.24 K
14,C#CCCN1CCN(C(C)C(=O)N(C)C(C)C)CC1 (stereo not drawn),-0.13 K
15,Cc1ccc(N(C)S(=O)(=O)c2cccc(C(=O)Nc3ccc(Br)c(C)c3)c2)cc1,0.73 K
16,Cc1[nH]c2ccc(C(=O)O)cc2c1C,-0.09 K
17,CN(C(=O)CSc1nnc(NCc2ccco2)s1)C1CCCc2ccccc21 (stereo not drawn),-0.03 K
18,O=C(NC1(C(=O)N2CCN(C(=O)c3cnccn3)CC2)CCOC1)OCc1ccccc1 (stereo not drawn),-0.18 K
19,N#Cc1ccc(CN2CCC(CCc3ccc(O)cc3)CC2)cc1,-0.06 K
20,CCC(C)NC (stereo not drawn),0.35 K
21,O=C(c1cnc2c3ccccc3nn2c1)c1ccccc1O,0.07 K

# Part of the list above, with bars between the fields:
row | SMILES | TSA(with NAD+) / Primary screening (TSA) / delta Tm (K)
5 | NCCCC(N)C(=O)O (stereo not drawn) | -0.08 K
6 | O=C(Nc1ccc(OC(F)F)c(Cc2ccccc2)c1)C1=COCCO1 | -0.08 K
7 | COC(=O)c1ncccc1N1CCC(C(O)c2ccccc2)CC1 (stereo not drawn) | -0.21 K
8 | O=C(O)Cc1cc(F)cc2c1OCOC2 | -0.23 K
9 | O=C1NC(=S)N/C1=C\c1cc(Br)ccc1O | -0.03 K
10 | NC(=O)c1cc2sc3ccccc3c2s1 | 0.01 K
11 | Cn1c(SCc2cccc(C#N)c2)nc2ccsc2c1=O | -0.23 K
12 | Nc1cccc(N2C(=O)c3ccccc3C2=O)c1 | -0.09 K
13 | COC(=O)NCC(=O)NCc1ccc(Cn2cnc3ccccc32)cc1 | 0.07 K
14 | O=C(NC12CC3CC(CC(C3)C1)C2)c1ccccc1C(=O)OCC(=O)N1CCc2ccccc21 | -0.13 K
15 | O=C(O)CSCC(=O)O | -0.16 K
16 | NC(=O)C1CCN(Cc2nc3c(Br)cc(Br)cc3c(=O)[nH]2)CC1 | 0.08 K
17 | O=C(CNCc1ccco1)Nc1ccccc1C(F)(F)F | -0.16 K
